The data set concerns Caco-2 cell monolayers. As to the kind of experiment: In vitro permeability assay in Caco-2 monolayers. Background: Caco-2 monolayers are a common model of the intestinal barrier.

Where “and” joins values, the source holds several entries; their conditions need not be identical. Equal entries are not always repeated. The source gives many values for each of these; only a part stands here.

As to `NC(=O)c1cnccn1` [PZA, pyrazinamide], the “Calculated Amount” value was 1333.17 (PZA (25 µg mL^-1), direction AB, compartment baso, time 30 min); 26413 and 25844.5 and 26583.2 (PZA (25 µg mL^-1), direction BA, compartment baso, time 0 min); 20560.3 and 20501.2 (PZA (25 µg mL^-1), direction BA, compartment baso, time 120 min); 28976.4 and 28064.3 and 31284.4 (PZA (40 µg mL^-1), direction AB, compartment api, time 0 min); 0 (PZA (40 µg mL^-1), direction AB, compartment baso, time 0 min); 4853.22 and 4349.7 and 4275.28 (PZA (40 µg mL^-1), direction AB, compartment baso, time 60 min). Also, the “Calculated Amount” value by setting is: (PZA (40 µg mL^-1), direction AB, compartment baso, time 90 min) 5770.39 and 5601.9 and 5436.88; (PZA (40 µg mL^-1), direction AB, compartment baso, time 120 min) 4977.56 and 4113.08 and 4440.77; (PZA (40 µg mL^-1), direction BA, compartment api, time 30 min) 5459.68 and 4472.97 and 5086.94; (PZA (40 µg mL^-1), direction BA, compartment api, time 60 min) 9734.39 and 8339.56 and 9591.97; (PZA (40 µg mL^-1), direction BA, compartment api, time 90 min) 11611.6 and 10257.1 and 12377.9; (PZA (40 µg mL^-1), direction BA, compartment api, time 120 min) 12904.2 and 13264.5 and 15050. For the same compound, the “Calculated Amount” value (PZA (40 µg mL^-1), direction BA, compartment baso, time 0 min) was 31408.1 and 25372.8 and 29233.4.
